We go through 1 molecule from patent publication US20100151556A1 (CELLECTIS, published 2010).

The assay has as its target T1, M3 I-CreI mutant (RAG1.10.3 cutter) (Chlamydomonas reinhardtii) (UniProt P05725).
T1 sequence: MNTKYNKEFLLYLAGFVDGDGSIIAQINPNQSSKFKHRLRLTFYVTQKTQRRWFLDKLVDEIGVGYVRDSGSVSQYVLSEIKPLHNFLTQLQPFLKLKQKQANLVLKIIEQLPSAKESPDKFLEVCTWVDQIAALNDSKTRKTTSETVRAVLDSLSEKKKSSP
The assay is described as follows: analytical ultracentrifugation and gel filtration of co-expressed, double-tagged (His/Strep) purified heterodimers. A general note: In gel filtration, larger molecules generally elute earlier.

No constants are given. Whether binding was seen depends on the method and setting. Some entries that bind do so weakly or less than the wild type.

B1: M2 I-CreI mutant (RAG1.10.2 cutter) (enzyme, not shown: small tags and cut ends)
chain: MNTKYNKEFLLYLAGFVDGDGSIIAQIKPRQSNKFKHQLSLTFAVTQKTQRRWFLDKLVDEIGVGYVYDSGSVSDYRLSEIKPLHNFLTQLQPFLKLKQKQANLVLKIIEQLPSAKESPDKFLEVCTWVDQIAALNDSKTRKTTSETVRAVLDSLSEKKKSSP
Take B1: the binding result is “binds”.
